Laboratory results from publication PMC6901988.
These are yes or no findings as the source states them, for the method shown. Binding seen in cells or lysates may run through a third protein. Some entries that bind do so weakly or less than the wild type.

Amino acid sequences for entries named in this document (tags omitted).
UniProt P19525: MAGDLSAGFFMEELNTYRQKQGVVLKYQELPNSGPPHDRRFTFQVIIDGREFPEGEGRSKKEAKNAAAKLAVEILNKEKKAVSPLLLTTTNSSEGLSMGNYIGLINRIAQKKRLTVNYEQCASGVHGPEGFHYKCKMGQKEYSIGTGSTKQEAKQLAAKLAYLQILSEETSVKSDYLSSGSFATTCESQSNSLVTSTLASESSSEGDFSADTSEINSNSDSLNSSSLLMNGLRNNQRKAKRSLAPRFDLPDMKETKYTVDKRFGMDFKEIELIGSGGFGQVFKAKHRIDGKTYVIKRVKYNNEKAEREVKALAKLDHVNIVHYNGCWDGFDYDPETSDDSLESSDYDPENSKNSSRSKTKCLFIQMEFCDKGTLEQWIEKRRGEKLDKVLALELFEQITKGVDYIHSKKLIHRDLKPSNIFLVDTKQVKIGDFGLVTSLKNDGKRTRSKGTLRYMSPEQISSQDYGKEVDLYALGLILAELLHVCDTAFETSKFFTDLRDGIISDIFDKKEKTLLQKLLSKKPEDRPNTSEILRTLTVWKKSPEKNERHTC
UniProt Q9ULZ3: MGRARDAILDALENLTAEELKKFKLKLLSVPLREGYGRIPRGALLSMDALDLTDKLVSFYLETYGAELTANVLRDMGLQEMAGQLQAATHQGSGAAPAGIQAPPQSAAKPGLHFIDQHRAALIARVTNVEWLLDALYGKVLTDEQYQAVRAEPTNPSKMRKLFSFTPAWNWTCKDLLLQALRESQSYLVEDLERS

Target: Flag-tagged PKR (interferon-inducible double-stranded RNA-dependent protein kinase) (human) (UniProt P19525)
Assay: co-IP

YFP-ASC (apoptosis-associated speck-like protein containing a caspase recruitment domain), stably expressed in HEK293 cells (from UniProt Q9ULZ3 1-195)
binding: binds
